According to paper PMC7067851, “Formation of pre-pore complexes of pneumolysin is accompanied by a decrease in short-range order of lipid molecules throughout vesicle bilayers” (Scientific Reports, 2020):
No constants are given. Whether binding was seen depends on the method and setting.

Amino acid sequences for entries named in this document (tags omitted). A change or cut given only in a name is not applied to a line headed by its entry.
UniProt Q04IN8, whole entry, looked up, stated change not applied: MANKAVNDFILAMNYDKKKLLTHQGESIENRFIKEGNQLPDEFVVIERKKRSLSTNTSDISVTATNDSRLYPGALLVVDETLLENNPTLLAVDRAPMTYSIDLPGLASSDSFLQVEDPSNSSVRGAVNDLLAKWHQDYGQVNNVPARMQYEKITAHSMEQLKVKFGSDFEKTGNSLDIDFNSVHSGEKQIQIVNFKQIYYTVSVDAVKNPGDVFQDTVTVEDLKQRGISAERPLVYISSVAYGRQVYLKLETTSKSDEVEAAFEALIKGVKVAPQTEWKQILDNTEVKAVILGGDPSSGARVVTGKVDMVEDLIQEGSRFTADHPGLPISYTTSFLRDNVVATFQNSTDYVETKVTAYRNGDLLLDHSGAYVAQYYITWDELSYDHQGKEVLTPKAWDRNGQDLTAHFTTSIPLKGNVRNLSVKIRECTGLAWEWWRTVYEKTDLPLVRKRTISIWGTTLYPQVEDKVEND

Target: pneumolysin point mutant N339R (Streptococcus pneumoniae) (UniProt Q04IN8)
Assay: negative-stain transmission electron microscopy; protein incubated with unilamellar liposomes (1:1 POPC/chol), stained with 1% w/v uranyl acetate on a copper grid; membrane-bound oligomeric structures visualised; both purified

pneumolysin point mutant N339R (from UniProt Q04IN8 1-471)
binding: no binding
